Source: PMC12499392
No constants are given. Whether binding was seen depends on the method and setting. Binding seen in cells or lysates may run through a third protein. A yes stands for co-enrichment or nearness to the bait. Other partners may have been found.

The chains behind the UniProt entries cited, without tags or fusion partners. Residues count along the entry.
UniProt P38646, residues 47-679: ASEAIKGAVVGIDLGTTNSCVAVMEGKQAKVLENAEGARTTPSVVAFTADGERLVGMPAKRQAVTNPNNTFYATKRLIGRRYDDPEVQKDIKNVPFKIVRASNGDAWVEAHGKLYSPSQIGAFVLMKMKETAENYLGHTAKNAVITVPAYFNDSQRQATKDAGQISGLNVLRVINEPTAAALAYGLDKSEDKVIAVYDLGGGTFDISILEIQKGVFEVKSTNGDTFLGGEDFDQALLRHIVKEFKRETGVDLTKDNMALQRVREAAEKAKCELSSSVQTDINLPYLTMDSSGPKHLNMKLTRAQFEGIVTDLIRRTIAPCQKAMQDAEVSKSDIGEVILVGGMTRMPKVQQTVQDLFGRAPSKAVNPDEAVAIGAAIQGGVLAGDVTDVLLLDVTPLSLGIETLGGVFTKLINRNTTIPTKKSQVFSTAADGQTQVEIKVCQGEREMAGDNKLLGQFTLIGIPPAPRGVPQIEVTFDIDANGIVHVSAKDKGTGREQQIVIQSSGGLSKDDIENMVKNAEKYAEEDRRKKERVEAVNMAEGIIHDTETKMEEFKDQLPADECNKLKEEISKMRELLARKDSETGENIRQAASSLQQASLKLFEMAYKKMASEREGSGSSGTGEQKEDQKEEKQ
UniProt P05387: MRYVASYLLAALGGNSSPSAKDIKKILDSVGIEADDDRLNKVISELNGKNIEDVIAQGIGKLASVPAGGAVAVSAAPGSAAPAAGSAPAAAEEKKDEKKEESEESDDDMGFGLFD
UniProt P68871: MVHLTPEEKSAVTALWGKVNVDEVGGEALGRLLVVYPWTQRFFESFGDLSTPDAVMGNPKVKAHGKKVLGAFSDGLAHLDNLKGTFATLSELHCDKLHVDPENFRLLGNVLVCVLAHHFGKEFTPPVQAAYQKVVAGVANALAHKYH
UniProt P07305: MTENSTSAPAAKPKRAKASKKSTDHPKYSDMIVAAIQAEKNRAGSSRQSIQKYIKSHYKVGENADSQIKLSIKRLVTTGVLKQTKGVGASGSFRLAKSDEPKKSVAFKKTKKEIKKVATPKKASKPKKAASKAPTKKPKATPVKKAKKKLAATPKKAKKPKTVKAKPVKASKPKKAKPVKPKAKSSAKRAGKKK
UniProt Q00610: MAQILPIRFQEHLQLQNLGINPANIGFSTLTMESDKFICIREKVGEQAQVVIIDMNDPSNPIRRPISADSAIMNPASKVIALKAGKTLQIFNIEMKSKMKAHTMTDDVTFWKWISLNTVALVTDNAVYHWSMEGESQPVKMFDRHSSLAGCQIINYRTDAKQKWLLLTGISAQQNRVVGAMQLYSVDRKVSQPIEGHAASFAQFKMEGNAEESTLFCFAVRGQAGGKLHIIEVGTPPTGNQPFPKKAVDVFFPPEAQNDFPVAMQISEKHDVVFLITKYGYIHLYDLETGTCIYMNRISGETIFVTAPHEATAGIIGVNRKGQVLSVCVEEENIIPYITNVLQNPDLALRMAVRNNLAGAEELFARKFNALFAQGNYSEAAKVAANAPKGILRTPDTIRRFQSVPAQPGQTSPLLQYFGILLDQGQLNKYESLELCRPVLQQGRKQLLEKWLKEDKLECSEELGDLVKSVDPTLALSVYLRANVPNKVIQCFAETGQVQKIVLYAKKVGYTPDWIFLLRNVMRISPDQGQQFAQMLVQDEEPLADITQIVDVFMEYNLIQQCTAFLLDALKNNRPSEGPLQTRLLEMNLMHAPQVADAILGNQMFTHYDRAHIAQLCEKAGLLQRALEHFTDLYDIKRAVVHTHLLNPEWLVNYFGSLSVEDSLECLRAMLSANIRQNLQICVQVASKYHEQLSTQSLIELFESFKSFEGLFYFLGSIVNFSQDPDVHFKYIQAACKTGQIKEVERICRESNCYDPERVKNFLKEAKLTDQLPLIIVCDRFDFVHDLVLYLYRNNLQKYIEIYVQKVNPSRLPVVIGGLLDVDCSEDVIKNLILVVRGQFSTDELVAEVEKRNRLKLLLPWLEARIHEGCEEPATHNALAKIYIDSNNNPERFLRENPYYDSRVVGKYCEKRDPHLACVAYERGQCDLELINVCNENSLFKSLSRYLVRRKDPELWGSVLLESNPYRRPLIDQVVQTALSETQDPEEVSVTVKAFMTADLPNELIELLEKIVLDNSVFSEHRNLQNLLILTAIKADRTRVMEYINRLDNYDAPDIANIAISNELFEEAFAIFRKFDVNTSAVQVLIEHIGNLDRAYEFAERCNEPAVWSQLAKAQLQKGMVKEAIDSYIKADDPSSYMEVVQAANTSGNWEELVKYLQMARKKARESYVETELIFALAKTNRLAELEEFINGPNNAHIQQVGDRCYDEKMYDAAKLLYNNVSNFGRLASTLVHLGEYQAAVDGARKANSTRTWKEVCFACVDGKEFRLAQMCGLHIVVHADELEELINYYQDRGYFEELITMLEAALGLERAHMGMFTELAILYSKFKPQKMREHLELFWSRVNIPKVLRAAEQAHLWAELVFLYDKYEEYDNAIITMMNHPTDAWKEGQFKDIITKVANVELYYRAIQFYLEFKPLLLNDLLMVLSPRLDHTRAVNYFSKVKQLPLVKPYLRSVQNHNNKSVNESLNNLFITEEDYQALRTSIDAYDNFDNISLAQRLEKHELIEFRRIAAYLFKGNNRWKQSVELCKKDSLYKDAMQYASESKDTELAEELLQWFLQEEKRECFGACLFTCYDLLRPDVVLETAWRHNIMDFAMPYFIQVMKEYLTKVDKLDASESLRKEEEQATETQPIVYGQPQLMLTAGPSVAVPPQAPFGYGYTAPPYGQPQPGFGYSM
UniProt P46940: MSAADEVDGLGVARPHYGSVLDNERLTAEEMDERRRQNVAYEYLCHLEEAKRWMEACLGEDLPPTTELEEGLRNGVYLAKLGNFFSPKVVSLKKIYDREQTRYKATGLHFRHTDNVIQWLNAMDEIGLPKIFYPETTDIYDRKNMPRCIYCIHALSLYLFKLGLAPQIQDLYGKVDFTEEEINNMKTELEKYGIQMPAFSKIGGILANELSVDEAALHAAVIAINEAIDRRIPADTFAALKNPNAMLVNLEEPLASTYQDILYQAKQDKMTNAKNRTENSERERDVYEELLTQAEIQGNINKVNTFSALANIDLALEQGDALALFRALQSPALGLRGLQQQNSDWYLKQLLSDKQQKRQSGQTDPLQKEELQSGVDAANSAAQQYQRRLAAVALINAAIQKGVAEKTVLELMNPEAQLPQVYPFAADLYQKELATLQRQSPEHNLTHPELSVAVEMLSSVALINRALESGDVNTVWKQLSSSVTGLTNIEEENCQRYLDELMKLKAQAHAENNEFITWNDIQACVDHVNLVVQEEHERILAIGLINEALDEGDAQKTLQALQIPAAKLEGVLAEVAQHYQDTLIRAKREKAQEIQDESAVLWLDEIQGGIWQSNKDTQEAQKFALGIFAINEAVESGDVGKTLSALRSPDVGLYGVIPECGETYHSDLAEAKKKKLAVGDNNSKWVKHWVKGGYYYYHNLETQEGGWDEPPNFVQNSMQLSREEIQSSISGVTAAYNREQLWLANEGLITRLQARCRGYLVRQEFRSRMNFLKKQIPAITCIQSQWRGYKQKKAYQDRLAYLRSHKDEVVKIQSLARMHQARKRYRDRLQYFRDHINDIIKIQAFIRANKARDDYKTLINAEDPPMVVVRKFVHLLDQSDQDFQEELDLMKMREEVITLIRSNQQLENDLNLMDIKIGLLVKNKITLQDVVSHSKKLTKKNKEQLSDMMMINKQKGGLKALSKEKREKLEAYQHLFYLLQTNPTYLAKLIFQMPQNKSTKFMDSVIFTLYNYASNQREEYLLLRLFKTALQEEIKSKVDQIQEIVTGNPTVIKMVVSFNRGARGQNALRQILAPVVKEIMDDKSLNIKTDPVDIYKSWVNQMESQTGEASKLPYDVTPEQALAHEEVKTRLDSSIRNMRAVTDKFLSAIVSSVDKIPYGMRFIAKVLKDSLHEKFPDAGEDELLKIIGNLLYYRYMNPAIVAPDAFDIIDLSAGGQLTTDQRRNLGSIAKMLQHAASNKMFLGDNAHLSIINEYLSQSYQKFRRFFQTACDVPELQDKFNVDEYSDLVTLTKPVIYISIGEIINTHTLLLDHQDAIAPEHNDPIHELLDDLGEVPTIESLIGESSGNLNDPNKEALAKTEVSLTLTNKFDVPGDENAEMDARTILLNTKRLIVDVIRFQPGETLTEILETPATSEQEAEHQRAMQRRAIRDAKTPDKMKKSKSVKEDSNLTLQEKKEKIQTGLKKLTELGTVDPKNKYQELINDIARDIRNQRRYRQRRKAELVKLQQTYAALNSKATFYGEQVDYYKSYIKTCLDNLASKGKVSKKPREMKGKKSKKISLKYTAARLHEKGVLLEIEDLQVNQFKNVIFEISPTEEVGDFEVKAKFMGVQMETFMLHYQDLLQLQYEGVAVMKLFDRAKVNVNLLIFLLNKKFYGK

Molecular target: mortalin (human (endogenous in OV90, A2780, SKOV3, OVCAR3 and fallopian tube cells)) (UniProt P38646)
Test: affinity purification with mass spectrometry; OV90, A2780, FT007 and FT032 cells treated with 10 x 10^-6 M SHetA2 or vehicle for 4 h; 500 ug lysate incubated overnight at 4 C with 10 ug D13H4 mortalin antibody coupled to agarose beads (Pierce Co-Immunoprecipitation Kit); LC-MS/MS; hits are proteins with less peak intensity in the precipitate after SHetA2

Row | Substance | binding
1 | RPLP2 (from UniProt P05387 1-115) | binds
2 | HBB (from UniProt P68871 1-147) | binds
3 | H1F0 (from UniProt P07305 1-194) | binds
4 | CLTC (from UniProt Q00610 1-1675) | binds
5 | VCP (from UniProt P55072 1-806) | binds
6 | PLEC (from UniProt Q15149 1-4684) | binds
7 | IQGAP1 (from UniProt P46940 1-1657) | binds
